From patent EP0002836A1, “Acylhydrocarbylaminoalcanecarboxylic acids, their preparation and their use, and pharmaceutical compositions containing them” (Byk Gulden Lomberg Chemische Fabrik GmbH, priority 1977, dated 1979)

Legend:
[1] = system: Pankreassekretion narkotisierter Ratten; assay: Pancreatic secretion of anaesthetised rats after intraduodenal administration; type: in vivo; details: LD50 (Maus, i.p.) / ED50 Pankreassekretion (Ratte, i.d.); for Lfd.Nr. 1 the cited p.o. LD50
Source text: (§1) In Tabelle I werden Untersuchungen der Pankreassekretion von narkotisierten Ratten nach intraduodenaler Applikation (ED50) und die letale Wirkung an der Maus (LD50) nach intraperitonealer Applikation von Vertretern der erfindungsgemäßen Verbindungen sowie der therapeutische Quotient (^TQ = LD50/ED50) wiedergegeben.
(§2) Einfluß auf die Pankreas- und Gallesekretion der narkotisierten Ratte Versuchsdurchführung:
(§3) Männliche Sprague-Dawley-Ratten (250 - 300 ^g Körpergewicht) werden mit 1,2 g/kg Urethan i.m. narkotisiert. Dann wird die Bauchhöhle medial geöffnet, der Ductus choledochus kurz oberhalb seiner Mündung in das Duodenum sowie nahe der Leberpforte ligiert, beide Gangabschnitte werden leberwärts katheterisiert.
(§4) Da bei der Ratte alle Pankreaskanäle in den mittleren Abschnitt des Ductus choledochus munden,lassen sich auf diese Weise aus dem distalen (ligierten) Gangabschnitt das Pankreassekret und aus dem proximalen Teil des Ductus choledochus die Galle getrennt ableiten.
(§5) Die sezernierten Mengen an Pankreas- und Gallensaft werden in 30 min. Abständen während 2 Stunden vor bis 3 Stunden nach der intraduodenalen ([…]) Verabreichung der zu prüfenden Verbindungen (verabreichtes Flüssigkeitsvolumen 5 ml/kg) gemessen.
(§6) Die Körpertemperatur der Tiere wird mittels Heizkissen und Bestrahlung auf 36 - 38°C gehalten; die Temperaturkontrolle erfolgt rectal. […]

[2] = system: Gallesekretion narkotisierter Ratten; assay: Bile secretion (choleresis) of anaesthetised rats after intraduodenal administration; type: in vivo; details: LD50 (Maus, i.p.) / ED50 Gallesekretion (Ratte i.d.); for Lfd.Nr. 1 the cited p.o. LD50
Source text: as §1, with “Tabelle II” for “Tabelle I”, “der Gallesekretion (Cholerese)” for “der Pankreassekretion”, “Quotient (TQ” for “Quotient (^TQ”
as §2, §3, §4, §5, §6

Compound	TQ [LD50/ED50] [1]	TQ [LD50/ED50] [2]
CC(C)(C)CC(C)(C)N(CCCC(=O)O)C(=O)c1ccc(F)cc1 [Beispiel 16]	~ 40	–
C#CC1(N(CCCC(=O)O)C(=O)c2ccc(Cl)cc2)CCCCC1 [Beispiel 5]	95	32
